From PubChem BioAssay AID2685 (National Center for Advancing Translational Sciences (NCATS), 2010)
The other results are listed elsewhere or left out. The main result of the screen is listed elsewhere. These columns were measured beside it and carry no call. Most of these compounds were active or inconclusive in the main read-out, so they are no random draw. Potencies come from curve fits of mixed quality, noted in brackets.

Assay: qHTS Assay for Lipid Storage Modulators in Drosophila S3 Cells;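 for cell number change: cells counted by Cell Tracker Red CMTPX staining in the red channel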
Conditions: BODIPY lipid droplet fluorescence, 18-24 h; for cell number change: measured here: cell count max response, cells fed with added oleic acid
How it was run: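 Drosophila S3 cells got compounds at several concentrations plus oleic acid (400 uM solution). Laser-scanning cytometry with 488 nm excitation read lipid droplets at 500-530 nm and cells at 575-640 nm. Percent activity was relative to 20 uM Triacsin C.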

[1] = measured here: cell number channel AC50, cells fed with added oleic acid
[2] = measured here: lipid fluorescence (Fed channel) AC50, cells fed with added oleic acid

Compound: COc1ccc(S(=O)(=O)N2CCOCC2)cc1NC(=O)CCNC(=O)c1ccc(Br)cc1
- AC50 [1]: 5.17 µM [falling, single point]
- AC50 [2]: 4.61 µM [falling, single point]

Compound: CSc1nc2ccc(NS(=O)(=O)c3ccc(CNC(C)=O)cc3)cc2s1
- cell number change: -8.69%
- AC50 [2]: 2.06 µM [falling, partial curve, poor fit]

Compound: CC(C)OC(=O)c1nnn(-c2nonc2N)c1CSc1ccccn1
- cell number change: -18.7%
- AC50 [2]: 6.51 µM [rising, partial curve, poor fit]

Compound: COCCNC(=O)COC(=O)c1[nH]c(C)c(C(C)=O)c1C
- AC50 [1]: 0.164 µM [rising, full curve, poor fit]
- AC50 [2]: 0.366 µM [rising, partial curve, poor fit]

Compound: CCOC(=O)c1cnc2c(OC)cccc2c1N1CCN(c2ccccc2OC)CC1
- cell number change: -32.9%
- AC50 [1]: 23.1 µM [falling, single point]

Compound: CCO[C@@H]1OC(C(=O)N2CCOCC2)=C[C@H](c2ccc(C(F)(F)F)cc2)[C@H]1CCCO
- cell number change: 20.4%
- AC50 [2]: 0.092 µM [rising, full curve, poor fit]

Compound: O=C(NCc1cccnc1)C1c2ccccc2C(=O)N1Cc1ccccc1 (stereo not given)
- cell number change: -0.787%

Compound: COc1ccc(S(=O)(=O)NCc2cccnc2)cc1NC(=O)c1ccc(C)cc1
- AC50 [2]: 4.11 µM [rising, single point]

Compound: O=C(O)c1cccc2c1-c1ccccc1/C2=N\Nc1ccccc1
- cell number change: -26.1%

Compound: CSCC[C@H](NC(=O)COc1cc2c(c3oc(=O)c(C)c(C)c13)CCC(C)(C)O2)C(=O)O
- cell number change: 12.1%
- AC50 [2]: 20.6 µM [rising, single point]

Compound: Cn1cccc1CNC(=S)Nc1ccccc1Cl
- cell number change: -12%
- AC50 [1]: 0.291 µM [falling, single point]

Compound: CCOc1ccc(NS(=O)(=O)c2ccc(C(=O)NCC(c3ccc(OC)cc3)N3CCCC3)cc2)cc1 (stereo not given)
- cell number change: -11%
- AC50 [2]: 16.4 µM [falling, single point]

Compound: CCCCC1CCC(C(=O)OC(C)C(=O)Nc2ccc(NC(C)=O)cc2)CC1 (stereo not given)
- cell number change: 38.3%
- AC50 [1]: 7.31 µM [rising, partial curve]
- AC50 [2]: 0.517 µM [rising, full curve]

Compound: CCN1CCN(C(=O)C2CC(c3ccc(F)cc3)=NO2)CC1 (stereo not given)
- cell number change: -0.196%
- AC50 [2]: 29.1 µM [falling, single point]

Compound: CCOC(=O)c1[nH]cnc1C(=O)O
- cell number change: 10.9%
- AC50 [2]: 20.6 µM [falling, partial curve]

Compound: Cc1ccc2nc(-c3ccc(NC(=O)COC(=O)c4ccco4)cc3)sc2c1
- cell number change: -10.1%
- AC50 [1]: 3.26 µM [falling, single point]
- AC50 [2]: 2.06 µM [falling, single point]

Compound: COc1ccc(NC(=O)Cc2nnc(SCC(=O)c3ccccc3)n2C)cc1
- cell number change: 16.7%
- AC50 [2]: 0.116 µM [falling, single point]

Compound: CC(=O)C1=C(C)Nc2ncnn2C1c1ccc(Cl)cc1 (stereo not given)
- cell number change: -0.291%

Compound: CN(C)CCNc1ncnc2c1cnn2-c1ccc(Cl)cc1
- cell number change: 18.7%
- AC50 [2]: 32.6 µM [rising, single point]

Compound: COc1cc(NS(=O)(=O)c2c(C)[nH]c(C)c2C(=O)N2CCCCC2)cc(OC)c1OC
- cell number change: -13.7%

Compound: O=C(CCNC(=O)c1ccc(Cl)cc1)NCc1cccc(C(F)(F)F)c1
- cell number change: 316%
- AC50 [1]: 29.1 µM [rising, single point]

Compound: CN1CCOCCOCCOCCN(C)C1=S
- cell number change: 1.91%

Compound: Cc1cc(NC(=O)c2oc3ccccc3c2C)ccc1-n1cnnn1
- cell number change: -9.66%
- AC50 [2]: 29.1 µM [falling, single point]

Compound: COc1ccc(OC)c(Nc2nc(C)nc3c2oc2ccccc23)c1
- cell number change: -52.1%
- AC50 [1]: 29.1 µM [falling, single point]
- AC50 [2]: 29.1 µM [falling, single point]

Compound: CCOC(=O)C1(CCc2ccccc2)CCN(C2Cc3ccccc3C2)CC1
- cell number change: -26.7%
- AC50 [2]: 5.8 µM [falling, partial curve]

Compound: CN(C(=O)CSc1nncc2ccccc12)C1CCCCC1
- cell number change: 4.48%
- AC50 [1]: 6.51 µM [rising, single point]
- AC50 [2]: 6.51 µM [rising, single point]

Compound: O=C(CSc1nnc(-c2ccc(O)cc2)n1Cc1ccco1)c1cccs1
- cell number change: 22.7%
- AC50 [2]: 0.058 µM [falling, full curve, poor fit]

Compound: Cc1ccc(C(=O)Oc2cc(-c3ccccc3)no2)cc1
- cell number change: 10.9%
- AC50 [2]: 0.206 µM [falling, full curve]

Compound: Cn1nnnc1SCc1nc2ccccc2[nH]1
- cell number change: 16.3%

Compound: Cc1cc(N2CCOCC2)nc2ccc(NC(=O)CCC(=O)N3CCN(c4ccccc4F)CC3)cc12
- cell number change: 37.4%

Compound: Clc1ccc(-n2nnnc2CN2CCCCC2)cc1Cl
- AC50 [2]: 0.231 µM [falling, full curve, poor fit]

Compound: CN(Cc1cccs1)C(=O)CN1C(=O)c2ccccc2S1(=O)=O
- cell number change: -29.3%
- AC50 [1]: 0.00517 µM [falling, full curve]
- AC50 [2]: 0.00461 µM [falling, full curve]

Compound: NNC(=O)CCCCCCCCCCOCCCCO
- AC50 [1]: 0.0058 µM [rising, full curve, poor fit]

Compound: Cn1c(=O)c2sc3c(c2n(CC(=O)Nc2ccccc2)c1=O)COC(C)(C)C3
- cell number change: 2.66%

Compound: Cc1c(C)c(C)c2[nH]c(-c3ccc4c(c3)OCO4)nc2c1C
- cell number change: -5.63%

Compound: Clc1ccc(Cn2nc(-c3ccccc3)nc2-c2ccccc2)cc1
- cell number change: -4.15%
- AC50 [1]: 2.31 µM [falling, single point]

Compound: CNc1oc(/C=C/c2ccccc2)nc1C#N
- cell number change: 58.9%
- AC50 [1]: 4.61 µM [rising, single point]
- AC50 [2]: 0.184 µM [rising, full curve]

Compound: CC(=O)Nc1sc(C)c(C)c1C(=O)OCC(=O)N(CCC#N)c1cc(C)cc(C)c1
- cell number change: 12.4%

Compound: CCCCOc1ccc(C2/C(=C(\O)c3ccc4c(c3)OCCO4)C(=O)C(=O)N2CCCN2CCOCC2)cc1 (stereo not given)
- AC50 [2]: 29.1 µM [rising, single point]

Compound: Cc1cc(C)cc(NC(=O)CCc2c(C)nn(-c3ccc(N4CCCCC4)nn3)c2C)c1
- cell number change: 11.9%
- AC50 [1]: 0.0058 µM [rising, full curve, poor fit]

Compound: COCCN(C(=O)CSc1nc2ccc(Cl)cc2[nH]1)c1c(N)n(Cc2ccccc2)c(=O)[nH]c1=O
- cell number change: -4.14%
- AC50 [2]: 29.1 µM [falling, single point]

Compound: Cc1cccc(Sc2c(C=O)c3ccccc3n2C)c1
- cell number change: 24.9%
- AC50 [2]: 23.1 µM [rising, single point]

Compound: COc1ccc(/C=C/C(=O)OCC(=O)Nc2cc(C(F)(F)F)ccc2Cl)cc1
- cell number change: -9.04%
- AC50 [2]: 20.6 µM [falling, partial curve, poor fit]

Compound: COc1ccc(-c2nc(C(N)=O)c3[nH]c(=O)n(-c4cccc(Cl)c4)c3n2)cc1OC
- cell number change: -162%
- AC50 [1]: 6.51 µM [rising, partial curve, poor fit]
- AC50 [2]: 29.1 µM [falling, single point]

Compound: CN(C(=O)COc1ncnc2sccc12)C1CCCCC1
- cell number change: 13.1%
- AC50 [2]: 3.66 µM [rising, partial curve, poor fit]

Compound: CCCC(=O)NC(c1ccc(C)cc1)c1ccc2cccnc2c1O (stereo not given)
- cell number change: -59.6%
- AC50 [1]: 8.2 µM [falling, partial curve]

Compound: COc1ccc(N(CC(=O)Nc2cc([N+](=O)[O-])ccc2C)S(C)(=O)=O)cc1OC
- cell number change: 16.1%

Compound: CSc1ccc(OC2CCCCC2NS(=O)(=O)c2ccccc2)cc1 (stereo not given)
- cell number change: -11.4%
- AC50 [1]: 5.8 µM [falling, single point]

Compound: Cc1ccc(S(=O)(=O)Nc2cccc(C(=O)NCC(c3ccco3)N3CCCCC3)c2)cc1F (stereo not given)
- cell number change: -33.7%
- AC50 [1]: 29.1 µM [falling, single point]
- AC50 [2]: 1.84 µM [falling, partial curve]

Compound: Cn1c(CCC(N)=O)nnc1SCC(=O)Nc1cc(S(=O)(=O)N2CCCC2)ccc1Cl
- cell number change: -71.2%
- AC50 [1]: 20.6 µM [falling, single point]

Compound: O=C(Nc1ccc(S(=O)(=O)N2CCOCC2)cc1)C1CCN(S(=O)(=O)c2ccccc2)CC1
- cell number change: -50%
- AC50 [1]: 0.411 µM [falling, full curve]

Compound: OCC1(Cc2cccc(C(F)(F)F)c2)CCN(Cc2cc3ccccc3o2)CC1
- cell number change: -44.5%
- AC50 [1]: 29.1 µM [falling, single point]
- AC50 [2]: 29.1 µM [falling, single point]

Compound: C[C@H](NC(=O)[C@@H]1Cc2ccccc2CN1C(=O)OC(C)(C)C)C(=O)NC1CCCC1
- cell number change: -17.9%
- AC50 [2]: 6.51 µM [falling, single point]

Compound: COc1cc(NC(=O)c2ccco2)c(OC)cc1NC(=O)CSc1nnc(-c2cccs2)n1C
- cell number change: -28%
- AC50 [2]: 0.92 µM [rising, partial curve]

Compound: CNS(=O)(=O)Cc1ccc2[nH]cc(CCN(C)C)c2c1
- cell number change: -12.6%
- AC50 [2]: 0.58 µM [falling, full curve, poor fit]

Compound: CN1C(=O)c2c(sc3c2CCCC3)NC1c1ccccc1O (stereo not given)
- cell number change: 145%
- AC50 [1]: 29.1 µM [rising, single point]

Compound: CCOc1cc(-c2cc(-c3ccc(N)cc3)nc(N)c2C#N)ccc1O
- cell number change: -28.1%
- AC50 [2]: 0.13 µM [falling, full curve, poor fit]

Compound: COc1ccc(C2c3[nH]c4ccccc4c3C[C@H]3C(=O)N(CCCO)CC(=O)N23)c(OC)c1 (stereo not given in full)
- cell number change: 9.72%
- AC50 [2]: 29.1 µM [falling, single point]

Compound: CCOC(=O)NN1C(=O)c2ccccc2NC1c1cccs1 (stereo not given)
- cell number change: -36.2%
- AC50 [1]: 29.1 µM [falling, single point]
- AC50 [2]: 29.1 µM [falling, single point]

Compound: CSCCC(NC(=O)c1ccc([N+](=O)[O-])cc1Cl)C(=O)OCC(=O)C12CC3CC(CC(C3)C1)C2 (stereo not given)
- AC50 [1]: 0.731 µM [rising, full curve]
- AC50 [2]: 0.92 µM [rising, full curve]
